Values from PubChem BioAssay AID1508588 (Peter MacCallum Cancer Centre, 2020)

- Test: 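Which gene losses make BRAF-mutant melanoma cells more responsive to vemurafenib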 (primary screen)
- Cells: human WM266.4 melanoma cells (BRAF V600 mutant)
- Reagent: siRNA pool against human genes, 40 nM
- Duration: 96 h from transfection to read-out
- Treatment: vemurafenib 300 nM (about IC25), added 48 h after transfection, for 48 h; comparison arm got DMSO vehicle only
- Detection: 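Cell gain (DAPI nuclei at end minus before drug, mean of two replicates) and medium lactate by absorbance per cell, both as ratio to non-targeting siRNA, also grouped into fold-change classes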
- Reading the numbers: cell gain with vemurafenib: higher = more cell gain than with non-targeting siRNA; lactate per cell with vemurafenib: higher = more lactate made per cell
- Call rule: 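Enhancement is called by pairing each knock-down's vehicle-arm and drug-arm fold-change classes for viability or glycolysis; which class combinations qualify is not given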
- Calls: active = enhances vemurafenib effect; inactive = no enhancement seen
This is one part, drawn at random, of about 18,000 deposited reagents. In the full data, 790 (4.4%) got an active call. 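Calls rest on a combination of fold-change classes in drug and vehicle arms, not all shown here.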

PAPOLA (poly(A) polymerase alpha) scored cell gain with vemurafenib 0.45; lactate per cell with vemurafenib 1.34; inactive. Against ZDHHC22 (zDHHC palmitoyltransferase 22), the entry reads cell gain with vemurafenib 0.56; lactate per cell with vemurafenib 1.37; inactive. After knock-down of MIER1 (MIER1 transcriptional regulator), the screen gave cell gain with vemurafenib 1.01; lactate per cell with vemurafenib 0.92; inactive. TAS2R38 (taste 2 receptor member 38) gave cell gain with vemurafenib 0.37; lactate per cell with vemurafenib 1.21; inactive. Against RASAL1 (RAS protein activator like 1), the values are cell gain with vemurafenib 0.71; lactate per cell with vemurafenib 0.83; inactive. For EBI3 (Epstein-Barr virus induced 3), the entry reads cell gain with vemurafenib 0.25; lactate per cell with vemurafenib 1.38; inactive.

Silencing of ASCL4 (achaete-scute family bHLH transcription factor 4) resulted in: cell gain with vemurafenib 0.85; lactate per cell with vemurafenib 0.99; inactive. After knock-down of LHX6 (LIM homeobox 6) the results were cell gain with vemurafenib 0.73; lactate per cell with vemurafenib 1.38; inactive. SLC25A44 showed cell gain with vemurafenib 0.36; lactate per cell with vemurafenib 1.52; inactive. Knock-down of CASR (calcium sensing receptor) resulted in: cell gain with vemurafenib 0.95; lactate per cell with vemurafenib 0.83; inactive. Silencing of GMNN (geminin DNA replication inhibitor) resulted in: cell gain with vemurafenib 0.49; lactate per cell with vemurafenib 0.9; inactive. Depletion of CTTN (cortactin) gave: cell gain with vemurafenib 0.71; lactate per cell with vemurafenib 0.33; inactive.

With knock-down of CARD17P (caspase recruitment domain family member 17, pseudogene) the results were cell gain with vemurafenib 0.4; lactate per cell with vemurafenib 1.25; inactive. Silencing of NEXN (nexilin F-actin binding protein) resulted in: cell gain with vemurafenib 0.05; lactate per cell with vemurafenib 2.2; inactive. Against COCH (cochlin), the values are cell gain with vemurafenib 0.92; lactate per cell with vemurafenib 0.64; inactive. Silencing of IRAK3 (interleukin 1 receptor associated kinase 3) gave: cell gain with vemurafenib 0.04; lactate per cell with vemurafenib 0.84; inactive. For ARB2A (ARB2 cotranscriptional regulator A), the values are cell gain with vemurafenib 0.69; lactate per cell with vemurafenib 0.38; inactive. Silencing of FNBP4 (formin binding protein 4) came out at: cell gain with vemurafenib 0.61; lactate per cell with vemurafenib 0.81; inactive.

For RTCB (RNA 2',3'-cyclic phosphate and 5'-OH ligase), the entry reads cell gain with vemurafenib 0.8; lactate per cell with vemurafenib 0.88; inactive. With knock-down of POTEA (POTE ankyrin domain family member A (gene/pseudogene)), the record shows cell gain with vemurafenib 1.16; lactate per cell with vemurafenib 0.83; inactive. ZNF189 (zinc finger protein 189) showed cell gain with vemurafenib 0.56; lactate per cell with vemurafenib 1.31; inactive. ATF7IP2 (activating transcription factor 7 interacting protein 2) showed cell gain with vemurafenib -0.02; lactate per cell with vemurafenib 0.19; active. Against EHD3 (EH domain containing 3), the entry reads cell gain with vemurafenib 0.68; lactate per cell with vemurafenib 0.96; inactive. HHIP (hedgehog interacting protein) gave cell gain with vemurafenib 0.19; lactate per cell with vemurafenib 1.72; inactive.

After knock-down of LTV1 (LTV1 ribosome biogenesis factor), the screen gave cell gain with vemurafenib 0.54; lactate per cell with vemurafenib 0.49; inactive. For MICAL1, the entry reads cell gain with vemurafenib 1.19; lactate per cell with vemurafenib 1.06; inactive. With knock-down of DENND2A (DENN domain containing 2A), the record shows cell gain with vemurafenib 0.71; lactate per cell with vemurafenib 1.06; inactive. Against TLL1 (tolloid like 1), the entry reads cell gain with vemurafenib 0.39; lactate per cell with vemurafenib 1.04; inactive. For OR1J2 (olfactory receptor family 1 subfamily J member 2), the values are cell gain with vemurafenib 0.84; lactate per cell with vemurafenib 0.52; inactive. NTS (neurotensin) scored cell gain with vemurafenib 1.01; lactate per cell with vemurafenib 0.3; inactive.

For ZNF33A (zinc finger protein 33A), the entry reads cell gain with vemurafenib 1.03; lactate per cell with vemurafenib 0.92; inactive. After knock-down of DCC (DCC netrin 1 receptor), the record shows cell gain with vemurafenib 1.28; lactate per cell with vemurafenib 0.66; inactive. Against NHERF1 (NHERF family PDZ scaffold protein 1), the values are cell gain with vemurafenib 0.4; lactate per cell with vemurafenib 1.47; inactive. For ZNF471 (zinc finger protein 471) the deposit lists cell gain with vemurafenib 0.6; lactate per cell with vemurafenib 0.94; inactive. Against SENP1 (SUMO specific peptidase 1) the deposit lists cell gain with vemurafenib 1.07; lactate per cell with vemurafenib 0.48; inactive. With knock-down of PSIP1 (PC4 and SRSF1 interacting protein 1), the record shows cell gain with vemurafenib 0.18; lactate per cell with vemurafenib 3.29; inactive.

With knock-down of TESC (tescalcin) the results were cell gain with vemurafenib 0.68; lactate per cell with vemurafenib 0.76; inactive. Silencing of PNCK (pregnancy up-regulated nonubiquitous CaM kinase) resulted in: cell gain with vemurafenib 0.28; lactate per cell with vemurafenib 1.26; inactive. Against THPO (thrombopoietin), the values are cell gain with vemurafenib 1.01; lactate per cell with vemurafenib 0.92; inactive. With knock-down of THAP4 (THAP domain containing 4), the record shows cell gain with vemurafenib 0.37; lactate per cell with vemurafenib 0.8; inactive. After knock-down of CERS6 (ceramide synthase 6) the results were cell gain with vemurafenib 0.53; lactate per cell with vemurafenib 0.7; inactive. PITPNM3 (PITPNM family member 3) gave cell gain with vemurafenib 0.43; lactate per cell with vemurafenib 1.15; inactive.

Depletion of TRIP6 (thyroid hormone receptor interactor 6) resulted in: cell gain with vemurafenib 0.42; lactate per cell with vemurafenib 0.7; inactive. For NUP85 (nucleoporin 85), the entry reads cell gain with vemurafenib 0.81; lactate per cell with vemurafenib 0.94; inactive. RNF208 (ring finger protein 208) scored cell gain with vemurafenib 0.79; lactate per cell with vemurafenib 0.95; inactive. For VN1R10P (vomeronasal 1 receptor 10, pseudogene) the deposit lists cell gain with vemurafenib 0.85; lactate per cell with vemurafenib 0.3; active. For CMBL (carboxymethylenebutenolidase homolog), the values are cell gain with vemurafenib 0.85; lactate per cell with vemurafenib 0.65; inactive. After knock-down of SNX7 (sorting nexin 7), the record shows cell gain with vemurafenib 0.1; lactate per cell with vemurafenib 2.52; inactive.

For TUBGCP2 (tubulin gamma complex component 2), the values are cell gain with vemurafenib 0.51; lactate per cell with vemurafenib 2.17; inactive. GTF2IRD2 (GTF2I repeat domain containing 2) gave cell gain with vemurafenib 0.52; lactate per cell with vemurafenib 0.91; inactive. After knock-down of CREB3L2 (cAMP responsive element binding protein 3 like 2) the results were cell gain with vemurafenib -0.08; lactate per cell with vemurafenib 1.88; inactive. Against FCGR1A (Fc gamma receptor Ia), the values are cell gain with vemurafenib 0.36; lactate per cell with vemurafenib 0.2; inactive.

5 entries already listed, sorted by “lactate per cell with vemurafenib”, ascending:
CERS6 (ceramide synthase 6) | cell gain with vemurafenib = 0.53; lactate per cell with vemurafenib = 0.7; activity call = inactive
TRIP6 (thyroid hormone receptor interactor 6) | cell gain with vemurafenib = 0.42; lactate per cell with vemurafenib = 0.7; activity call = inactive
THAP4 (THAP domain containing 4) | cell gain with vemurafenib = 0.37; lactate per cell with vemurafenib = 0.8; activity call = inactive
NUP85 (nucleoporin 85) | cell gain with vemurafenib = 0.81; lactate per cell with vemurafenib = 0.94; activity call = inactive
PITPNM3 (PITPNM family member 3) | cell gain with vemurafenib = 0.43; lactate per cell with vemurafenib = 1.15; activity call = inactive
